# Measurements from paper PMC7819943, “Rice protein-binding microarrays: a tool to detect cis-acting elements near promoter regions in rice”.
# Chains of the proteins cited; added tags and fusions are not shown.
# UniProt Q0JBA9, entry or part of it: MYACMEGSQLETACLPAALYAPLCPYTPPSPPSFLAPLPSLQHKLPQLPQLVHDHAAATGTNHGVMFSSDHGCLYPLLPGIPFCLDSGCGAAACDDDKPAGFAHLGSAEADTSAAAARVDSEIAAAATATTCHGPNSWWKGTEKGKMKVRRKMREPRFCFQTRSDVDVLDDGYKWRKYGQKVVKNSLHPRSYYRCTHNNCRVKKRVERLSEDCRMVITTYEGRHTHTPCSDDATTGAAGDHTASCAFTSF
# This is one part of the list.
# Target: OsWRKY34 (Oryza sativa, UniProt Q0JBA9 1-250)
# Experiment: protein-binding microarray (RPBM); PBS, 2% BSA, 51.3 ng/ul salmon testes DNA, 50 uM zinc acetate, 200 nM TF, 25 C, 1 h; high values mean tight binding
# Conditions: protein: recombinant; tags: N-terminal polyhistidine and DsRed monomer fusion (pET32a); label: CyDye5-dUTP incorporated in the synthesized complementary strand; 3' TTTTT single-stranded linker to array surface; dsDNA, one strand shown
# Outline: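 Binding signal here means per-feature fluorescence intensity in arbitrary units. The values were read on an Axon 4000B scanner after a custom Agilent array, double-stranded by primer extension with Cy5-dUTP, was incubated with 200 nM protein at 25 °C for 1 h in PBS with 2% BSA, salmon testes DNA and 50 µM zinc acetate, then washed. The proteins were transcription factors with an N-terminal polyhistidine tag and DsRed, expressed in E. coli BL21-CodonPlus and purified on Ni–NTA.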
row,Sequence,binding signal
1,CACTCCACTCCATCCGCGCTGCCTCCAAAACCCTCGACTCCGGAGTCACCTAGTGCAG,9480 fluorescence intensity (a.u.)
2,TTCTGAAATCCTTTCTACAGTTGGCGTATCCACTGAGTTTCGGAGTCACCTAGTGCAG,10000 fluorescence intensity (a.u.)
3,TTCCCAATATTTGACTTAAACATTGTCCTAAACGACTTTCCGGAGTCACCTAGTGCAG,8670 fluorescence intensity (a.u.)
4,TTGTGTGTGGTGTGTTGTTTTGAGGTGCAATCATTCGAACCGGAGTCACCTAGTGCAG,10000 fluorescence intensity (a.u.)
5,GCTTTGTTTGGGTTTATCTTCTGCTGAAATTCTCTCCTCACGGAGTCACCTAGTGCAG,9480 fluorescence intensity (a.u.)
6,TATTATTTGTCTCTACCTCTTCTCTCATTATAATACTATTCGGAGTCACCTAGTGCAG,8830 fluorescence intensity (a.u.)
7,GATAATATCCGCTCTGTTTTCACCCCTACTGGTATTTACTCGGAGTCACCTAGTGCAG,13100 fluorescence intensity (a.u.)
8,ATAGTTATTGGCAGTGTGTATTATAGCAGTTCATCTGTTACGGAGTCACCTAGTGCAG,8220 fluorescence intensity (a.u.)
9,TATGATTTTTTCTAGATTTTTTGGTGACATTTTTTAGTTACGGAGTCACCTAGTGCAG,8150 fluorescence intensity (a.u.)
10,AGACGAGACCACCCTCCAGCGCGTTGGACATGCCTATATCCGGAGTCACCTAGTGCAG,8470 fluorescence intensity (a.u.)
11,TTGACACATGGACCCGTAAGCTGGTAGCCCATACCGGTCTCGGAGTCACCTAGTGCAG,13200 fluorescence intensity (a.u.)
12,TTGCCCTGTTCTTGGCGCTCGATTTGTTGGTATCTCGGTGCGGAGTCACCTAGTGCAG,8630 fluorescence intensity (a.u.)
13,TATTTTTTGGTTTCTGTGTCCAACGTTTAACCATCTGTCTCGGAGTCACCTAGTGCAG,8450 fluorescence intensity (a.u.)
14,CCGTGAAGGCCTCTCTTTCCCGCGACCACCACCTCACTCTCGGAGTCACCTAGTGCAG,11500 fluorescence intensity (a.u.)
15,CGGTTCCGCTCTCGCCGGAGCGAGGGGTGGGTGGAGGATGCGGAGTCACCTAGTGCAG,9370 fluorescence intensity (a.u.)
16,TTGGTAGAGTATCTTGATGGGAATTAGTATGTTCATTTTTCGGAGTCACCTAGTGCAG,9600 fluorescence intensity (a.u.)
17,GGCAATCCGGTGCTCCTTGTCTGAACTCTCTCAATCTCAACGGAGTCACCTAGTGCAG,8040 fluorescence intensity (a.u.)
18,GCACCCGGCGCGCCTCTCGCTCGTCACCTCCCGCCGCCGCCGGAGTCACCTAGTGCAG,8540 fluorescence intensity (a.u.)
19,TCATCTTTGGTTCTCTCGCCATCTTTCATAGCATGCATCCCGGAGTCACCTAGTGCAG,10500 fluorescence intensity (a.u.)
20,CCTCTTTAAATCTTAACCATTCATTCTCCCTCATCCATTTCGGAGTCACCTAGTGCAG,8810 fluorescence intensity (a.u.)
21,TAGTGTCGCGTCACACTGTCTGCTGTTCGTCGCGCTCTAACGGAGTCACCTAGTGCAG,9770 fluorescence intensity (a.u.)

# Rewritten with bars between the fields: part of the list above.
row | Sequence | binding signal
1 | CACTCCACTCCATCCGCGCTGCCTCCAAAACCCTCGACTCCGGAGTCACCTAGTGCAG | 9480 fluorescence intensity (a.u.)
3 | TTCCCAATATTTGACTTAAACATTGTCCTAAACGACTTTCCGGAGTCACCTAGTGCAG | 8670 fluorescence intensity (a.u.)
5 | GCTTTGTTTGGGTTTATCTTCTGCTGAAATTCTCTCCTCACGGAGTCACCTAGTGCAG | 9480 fluorescence intensity (a.u.)
6 | TATTATTTGTCTCTACCTCTTCTCTCATTATAATACTATTCGGAGTCACCTAGTGCAG | 8830 fluorescence intensity (a.u.)
8 | ATAGTTATTGGCAGTGTGTATTATAGCAGTTCATCTGTTACGGAGTCACCTAGTGCAG | 8220 fluorescence intensity (a.u.)
9 | TATGATTTTTTCTAGATTTTTTGGTGACATTTTTTAGTTACGGAGTCACCTAGTGCAG | 8150 fluorescence intensity (a.u.)
11 | TTGACACATGGACCCGTAAGCTGGTAGCCCATACCGGTCTCGGAGTCACCTAGTGCAG | 13200 fluorescence intensity (a.u.)
17 | GGCAATCCGGTGCTCCTTGTCTGAACTCTCTCAATCTCAACGGAGTCACCTAGTGCAG | 8040 fluorescence intensity (a.u.)
18 | GCACCCGGCGCGCCTCTCGCTCGTCACCTCCCGCCGCCGCCGGAGTCACCTAGTGCAG | 8540 fluorescence intensity (a.u.)
19 | TCATCTTTGGTTCTCTCGCCATCTTTCATAGCATGCATCCCGGAGTCACCTAGTGCAG | 10500 fluorescence intensity (a.u.)
20 | CCTCTTTAAATCTTAACCATTCATTCTCCCTCATCCATTTCGGAGTCACCTAGTGCAG | 8810 fluorescence intensity (a.u.)
21 | TAGTGTCGCGTCACACTGTCTGCTGTTCGTCGCGCTCTAACGGAGTCACCTAGTGCAG | 9770 fluorescence intensity (a.u.)

# The list goes on.

row,Sequence,binding signal
1,GGCCCTTGTCGATTGATCCCCATGCTGTATATGATGATGACGGAGTCACCTAGTGCAG,9970 fluorescence intensity (a.u.)
2,CGTCTCCGACCAGCTCATGTCGTCTCCGGCGGCGTCCGCCCGGAGTCACCTAGTGCAG,11700 fluorescence intensity (a.u.)
3,TTCCTACTTGTTGTATACATTAATACTTCTATTCTAGTCTCGGAGTCACCTAGTGCAG,9270 fluorescence intensity (a.u.)
4,GGTTTATATGTCCGACGCTTGATCGTCCATTCTATTTTAACGGAGTCACCTAGTGCAG,8950 fluorescence intensity (a.u.)
5,CGCACCTAAAACTTCCTATATATTTATTGTCGTATTCAAACGGAGTCACCTAGTGCAG,9330 fluorescence intensity (a.u.)
6,AGAGAGTAGGGGTAGGTAATTTCATTATTTTTTTTGAAACCGGAGTCACCTAGTGCAG,8630 fluorescence intensity (a.u.)
7,CCCTTTTTTAAATATATGTTGCTGTTGTTTTTTTAACAAACGGAGTCACCTAGTGCAG,8880 fluorescence intensity (a.u.)
8,TTACCGTTACACCAACTTTGAATGCCTCCATCTGACGACGCGGAGTCACCTAGTGCAG,10100 fluorescence intensity (a.u.)
9,CAAGCGTTTAAGGCTCTCGCCGAGCAGTCCATCTCCCACTCGGAGTCACCTAGTGCAG,8150 fluorescence intensity (a.u.)
10,CCCCGACCCGCCGGCGCCGCCCACTCCCGTCTCGTCTCAACGGAGTCACCTAGTGCAG,14600 fluorescence intensity (a.u.)
11,GGGGTTGTGGAATGGGGAATGCGACCTACCTTGCGCTTCCCGGAGTCACCTAGTGCAG,12600 fluorescence intensity (a.u.)
12,GCGTGGTGTGGTTGTATTTTCTTTTTCCTGACTGCAGTCTCGGAGTCACCTAGTGCAG,12200 fluorescence intensity (a.u.)
13,GCGGCACGGCTTCCACATTTTTCGGCCAAATATTATATCCCGGAGTCACCTAGTGCAG,9380 fluorescence intensity (a.u.)
14,GGGTTGGCTTGGTTTGGGGAGCAAGATGATACGGGAGGAACGGAGTCACCTAGTGCAG,13900 fluorescence intensity (a.u.)
15,ACGCAAACGCTTCCCACCCTCCACTCCTTCGCGTCGATCTCGGAGTCACCTAGTGCAG,8940 fluorescence intensity (a.u.)
16,GTCCCTTCCCGCGCTTTCCCCACCGCTCGAATACAGCACACGGAGTCACCTAGTGCAG,8150 fluorescence intensity (a.u.)
17,TCTCTGAACATCATGCAAAATTCCTGTGATCCTCTGTACACGGAGTCACCTAGTGCAG,8070 fluorescence intensity (a.u.)
18,CCGCTGCTTCTTTCCCCGCTAGTCTTCGCCAGCTAGCGTCCGGAGTCACCTAGTGCAG,10400 fluorescence intensity (a.u.)
19,ACAATAATGCCAATATCTTTAACGTTCACTTCGTCACCAACGGAGTCACCTAGTGCAG,8300 fluorescence intensity (a.u.)
20,GCTTATGAACCCCGTGGGCCATGGCCCTTATATATTCCTACGGAGTCACCTAGTGCAG,8860 fluorescence intensity (a.u.)
21,GGGTGTTTGAATTCTCCACTTTCTATTTCTGTGTTCCGAACGGAGTCACCTAGTGCAG,12400 fluorescence intensity (a.u.)
